Drawing on article doi:10.1101/869289 (bioRxiv, 2019), this text covers binding for three molecules.

Results are given in words; binding and its absence hold for the method and conditions named. Some results given as binding are weak or reduced against the parent protein; the word gives no strength.

For test [1], the target named is T1, Tim9/10a hexamer chaperone (human) (UniProt Q9Y5J7+P62072).
T1 sequence 1: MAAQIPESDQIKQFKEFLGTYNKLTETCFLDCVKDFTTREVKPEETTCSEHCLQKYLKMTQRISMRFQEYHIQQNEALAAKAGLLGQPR
T1 sequence 2: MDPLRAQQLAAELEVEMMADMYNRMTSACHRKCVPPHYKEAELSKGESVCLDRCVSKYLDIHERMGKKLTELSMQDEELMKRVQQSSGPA
Briefly: cryo-EM structure.

For test [2], the target named is T2, Tim9/10a/10b hexamer chaperone (human) (UniProt Q9Y5J7+P62072+Q9Y5J6).
T2 sequence 1: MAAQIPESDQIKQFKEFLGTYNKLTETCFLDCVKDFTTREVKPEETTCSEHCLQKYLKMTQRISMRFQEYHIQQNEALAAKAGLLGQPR
T2 sequence 2: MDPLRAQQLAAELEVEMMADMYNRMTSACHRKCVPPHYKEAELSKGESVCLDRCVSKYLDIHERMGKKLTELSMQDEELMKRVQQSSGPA
T2 sequence 3: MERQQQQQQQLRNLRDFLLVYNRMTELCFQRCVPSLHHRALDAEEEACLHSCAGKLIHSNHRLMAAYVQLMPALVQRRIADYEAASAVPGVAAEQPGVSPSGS
Briefly: cryo-EM structure.

B1: Tim29 (natural protein, human, UniProt Q9BSF4 32-260, looked up)
chain: GSWARALLRDYAEACRDASAEARARPGRAAVYVGLLGGAAACFTLAPSEGAFEEALLEASGTLLLLAPATRNRESEAFVQRLLWLRGRGRLRYVNLGLCSLVYEAPFDAQASLYQARCRYLQPRWTDFPGRVLDVGFVGRWWVLGAWMRDCDINDDEFLHLPAHLRVVGPQQLHSETNERLFDEKYKPVVLTDDQVDQALWEEQVLQKEKKDRLALSQAHSLVQAEAPR
On to B1, for which the binding entry in test [1] and in test [2] was “binds” in each case.

B2: acylglycerol kinase (AGK) (enzyme, UniProt Q53H12 1-422)
chain: MTVFFKTLRNHWKKTTAGLCLLTWGGHWLYGKHCDNLLRRAACQEAQVFGNQLIPPNAQVKKATVFLNPAACKGKARTLFEKNAAPILHLSGMDVTIVKTDYEGQAKKLLELMENTDVIIVAGGDGTLQEVVTGVLRRTDEATFSKIPIGFIPLGETSSLSHTLFAESGNKVQHITDATLAIVKGETVPLDVLQIKGEKEQPVFAMTGLRWGSFRDAGVKVSKYWYLGPLKIKAAHFFSTLKEWPQTHQASISYTGPTERPPNEPEETPVQRPSLYRRILRRLASYWAQPQDALSQEVSPEVWKDVQLSTIELSITTRNNQLDPTSKEDFLNICIEPDTISKGDFITIGSRKVRNPKLHVEGTECLQASQCTLLIPEGAGGSFSIDSEEYEAMPVEVKLLPRKLQFFCDPRKREQMLTSPTQ
Regarding B2, in test [2], the binding result is recorded as “binds”.

B3: Tim22 (natural protein, human, UniProt Q9Y584 1-194, looked up)
chain: MAAAAPNAGGSAPETAGSAEAPLQYSLLLQYLVGDKRQPRLLEPGSLGGIPSPAKSEEQKMIEKAMESCAFKAALACVGGFVLGGAFGVFTAGIDTNVGFDPKDPYRTPTAKEVLKDMGQRGMSYAKNFAIVGAMFSCTECLIESYRGTSDWKNSVISGCITGGAIGFRAGLKAGAIGCGGFAAFSAAIDYYLR
B3: in test [2], the binding entry is reported as “binds”.
